# Read-outs that look alike come from different tables or passages of the source. Results are given in words; binding and its absence hold for the method and conditions named. In cells and extracts the contact can be indirect. A yes stands for co-enrichment or nearness to the bait. Other partners may have been found.
# Amino acid sequences for entries named in this document (tags omitted).
# UniProt P51149: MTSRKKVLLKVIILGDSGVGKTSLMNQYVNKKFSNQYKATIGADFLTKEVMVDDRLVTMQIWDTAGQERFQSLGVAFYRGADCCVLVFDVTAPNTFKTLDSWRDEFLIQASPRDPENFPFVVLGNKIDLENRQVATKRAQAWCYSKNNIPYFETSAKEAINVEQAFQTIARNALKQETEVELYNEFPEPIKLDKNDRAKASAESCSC
# T1: Protrudin (endogenous) (human (endogenous in HCT116 and HEK293)) (UniProt Q5T4F4)
# T1 sequence: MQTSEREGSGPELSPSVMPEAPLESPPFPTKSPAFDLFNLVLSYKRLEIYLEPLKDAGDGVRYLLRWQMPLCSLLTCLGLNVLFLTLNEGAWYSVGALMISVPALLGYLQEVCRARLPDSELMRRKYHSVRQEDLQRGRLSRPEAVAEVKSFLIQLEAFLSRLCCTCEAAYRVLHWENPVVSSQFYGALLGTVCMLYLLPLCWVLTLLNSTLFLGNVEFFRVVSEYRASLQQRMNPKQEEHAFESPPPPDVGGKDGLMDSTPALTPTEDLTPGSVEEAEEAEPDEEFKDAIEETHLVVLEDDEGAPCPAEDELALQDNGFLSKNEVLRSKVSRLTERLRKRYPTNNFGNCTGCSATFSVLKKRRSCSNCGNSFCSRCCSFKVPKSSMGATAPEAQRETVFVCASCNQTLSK
# T2: PDZD8 (endogenous) (human (endogenous in HCT116 and human fibroblasts)) (UniProt Q8NEN9)
# T2 sequence: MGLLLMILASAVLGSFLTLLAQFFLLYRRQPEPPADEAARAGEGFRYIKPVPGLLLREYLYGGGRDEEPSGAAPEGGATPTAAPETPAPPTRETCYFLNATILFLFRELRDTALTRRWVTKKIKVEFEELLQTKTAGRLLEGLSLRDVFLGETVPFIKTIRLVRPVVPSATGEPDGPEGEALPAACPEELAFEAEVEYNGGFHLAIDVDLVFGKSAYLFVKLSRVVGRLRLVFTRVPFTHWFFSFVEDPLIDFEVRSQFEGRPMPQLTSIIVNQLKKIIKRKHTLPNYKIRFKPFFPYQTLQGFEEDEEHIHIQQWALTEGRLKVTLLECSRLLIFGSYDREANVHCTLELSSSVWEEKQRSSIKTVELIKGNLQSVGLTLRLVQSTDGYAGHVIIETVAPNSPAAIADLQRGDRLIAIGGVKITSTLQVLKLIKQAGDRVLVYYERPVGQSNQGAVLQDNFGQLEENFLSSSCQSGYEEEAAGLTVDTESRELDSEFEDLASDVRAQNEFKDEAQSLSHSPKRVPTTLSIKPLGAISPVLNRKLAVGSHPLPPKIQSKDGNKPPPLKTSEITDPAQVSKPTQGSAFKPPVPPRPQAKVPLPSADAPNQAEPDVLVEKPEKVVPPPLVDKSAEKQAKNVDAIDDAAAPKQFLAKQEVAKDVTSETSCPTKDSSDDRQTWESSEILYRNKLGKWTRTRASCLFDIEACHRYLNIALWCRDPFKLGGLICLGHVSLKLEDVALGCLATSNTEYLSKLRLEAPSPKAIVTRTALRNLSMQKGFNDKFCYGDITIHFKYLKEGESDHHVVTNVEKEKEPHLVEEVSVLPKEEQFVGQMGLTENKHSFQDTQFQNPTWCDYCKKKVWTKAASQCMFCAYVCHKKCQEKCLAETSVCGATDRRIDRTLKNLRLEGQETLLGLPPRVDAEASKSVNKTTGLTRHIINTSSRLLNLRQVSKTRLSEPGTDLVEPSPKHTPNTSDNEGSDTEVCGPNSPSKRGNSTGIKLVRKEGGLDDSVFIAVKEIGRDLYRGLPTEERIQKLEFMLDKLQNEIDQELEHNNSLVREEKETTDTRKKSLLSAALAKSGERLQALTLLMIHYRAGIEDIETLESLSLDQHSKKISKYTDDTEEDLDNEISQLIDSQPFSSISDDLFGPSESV
# B1: Protrudin (endogenous) (protein, UniProt Q5T4F4 1-411)
# chain: MQTSEREGSGPELSPSVMPEAPLESPPFPTKSPAFDLFNLVLSYKRLEIYLEPLKDAGDGVRYLLRWQMPLCSLLTCLGLNVLFLTLNEGAWYSVGALMISVPALLGYLQEVCRARLPDSELMRRKYHSVRQEDLQRGRLSRPEAVAEVKSFLIQLEAFLSRLCCTCEAAYRVLHWENPVVSSQFYGALLGTVCMLYLLPLCWVLTLLNSTLFLGNVEFFRVVSEYRASLQQRMNPKQEEHAFESPPPPDVGGKDGLMDSTPALTPTEDLTPGSVEEAEEAEPDEEFKDAIEETHLVVLEDDEGAPCPAEDELALQDNGFLSKNEVLRSKVSRLTERLRKRYPTNNFGNCTGCSATFSVLKKRRSCSNCGNSFCSRCCSFKVPKSSMGATAPEAQRETVFVCASCNQTLSK
# B2: PDZD8 (endogenous) (protein, UniProt Q8NEN9 1-1154)
# chain: MGLLLMILASAVLGSFLTLLAQFFLLYRRQPEPPADEAARAGEGFRYIKPVPGLLLREYLYGGGRDEEPSGAAPEGGATPTAAPETPAPPTRETCYFLNATILFLFRELRDTALTRRWVTKKIKVEFEELLQTKTAGRLLEGLSLRDVFLGETVPFIKTIRLVRPVVPSATGEPDGPEGEALPAACPEELAFEAEVEYNGGFHLAIDVDLVFGKSAYLFVKLSRVVGRLRLVFTRVPFTHWFFSFVEDPLIDFEVRSQFEGRPMPQLTSIIVNQLKKIIKRKHTLPNYKIRFKPFFPYQTLQGFEEDEEHIHIQQWALTEGRLKVTLLECSRLLIFGSYDREANVHCTLELSSSVWEEKQRSSIKTVELIKGNLQSVGLTLRLVQSTDGYAGHVIIETVAPNSPAAIADLQRGDRLIAIGGVKITSTLQVLKLIKQAGDRVLVYYERPVGQSNQGAVLQDNFGQLEENFLSSSCQSGYEEEAAGLTVDTESRELDSEFEDLASDVRAQNEFKDEAQSLSHSPKRVPTTLSIKPLGAISPVLNRKLAVGSHPLPPKIQSKDGNKPPPLKTSEITDPAQVSKPTQGSAFKPPVPPRPQAKVPLPSADAPNQAEPDVLVEKPEKVVPPPLVDKSAEKQAKNVDAIDDAAAPKQFLAKQEVAKDVTSETSCPTKDSSDDRQTWESSEILYRNKLGKWTRTRASCLFDIEACHRYLNIALWCRDPFKLGGLICLGHVSLKLEDVALGCLATSNTEYLSKLRLEAPSPKAIVTRTALRNLSMQKGFNDKFCYGDITIHFKYLKEGESDHHVVTNVEKEKEPHLVEEVSVLPKEEQFVGQMGLTENKHSFQDTQFQNPTWCDYCKKKVWTKAASQCMFCAYVCHKKCQEKCLAETSVCGATDRRIDRTLKNLRLEGQETLLGLPPRVDAEASKSVNKTTGLTRHIINTSSRLLNLRQVSKTRLSEPGTDLVEPSPKHTPNTSDNEGSDTEVCGPNSPSKRGNSTGIKLVRKEGGLDDSVFIAVKEIGRDLYRGLPTEERIQKLEFMLDKLQNEIDQELEHNNSLVREEKETTDTRKKSLLSAALAKSGERLQALTLLMIHYRAGIEDIETLESLSLDQHSKKISKYTDDTEEDLDNEISQLIDSQPFSSISDDLFGPSESV
# Key:
# Experiment in all cases: affinity purification with mass spectrometry; cells crosslinked with 500 uM DSP, lysed in 150 mM NaCl, 50 mM Tris-Cl pH7.5, 1% sodium-deoxycholate, 0.1% SDS, 1% NP-40, 1 mM EDTA; endogenous PDZD8 or Protrudin immunopurified with 2 ug antibody and protein G magnetic microbeads at 4 °C; control without antibody; label-free quantification; HCT116, HEK293 and human fibroblasts
# [1] = target: T1, Protrudin (endogenous) (human (endogenous in HCT116 and HEK293))
# [2] = target: T2, PDZD8 (endogenous) (human (endogenous in HCT116 and human fibroblasts))
# [3] = target: T1, Protrudin (endogenous) (human (endogenous in HCT116 and HEK293)); remark: listed apart in the source
molecule,measurement,setting,value
Rab7 (endogenous) (from UniProt P51149 1-207),binding,[1],binds
B1,binding,[2],binds
B2,binding,[3],binds

# Reference: article PMC7371716
